The other results are listed elsewhere or left out.

Chains of the proteins cited; added tags and fusions are not shown. Lines headed by an entry give the natural chain unless they say otherwise; changes in a name come on top.
UniProt Q9NZJ7, whole entry, looked up: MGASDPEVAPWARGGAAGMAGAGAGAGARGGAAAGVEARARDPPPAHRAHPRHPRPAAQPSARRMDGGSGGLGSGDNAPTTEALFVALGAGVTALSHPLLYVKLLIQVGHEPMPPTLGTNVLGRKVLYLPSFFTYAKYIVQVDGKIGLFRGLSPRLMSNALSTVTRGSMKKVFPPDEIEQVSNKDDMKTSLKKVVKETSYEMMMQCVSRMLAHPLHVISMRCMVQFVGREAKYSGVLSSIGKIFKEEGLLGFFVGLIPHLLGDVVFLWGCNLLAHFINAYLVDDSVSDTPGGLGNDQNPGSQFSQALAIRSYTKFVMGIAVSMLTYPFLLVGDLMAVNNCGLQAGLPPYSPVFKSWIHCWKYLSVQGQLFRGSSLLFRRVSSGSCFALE
UniProt P13995: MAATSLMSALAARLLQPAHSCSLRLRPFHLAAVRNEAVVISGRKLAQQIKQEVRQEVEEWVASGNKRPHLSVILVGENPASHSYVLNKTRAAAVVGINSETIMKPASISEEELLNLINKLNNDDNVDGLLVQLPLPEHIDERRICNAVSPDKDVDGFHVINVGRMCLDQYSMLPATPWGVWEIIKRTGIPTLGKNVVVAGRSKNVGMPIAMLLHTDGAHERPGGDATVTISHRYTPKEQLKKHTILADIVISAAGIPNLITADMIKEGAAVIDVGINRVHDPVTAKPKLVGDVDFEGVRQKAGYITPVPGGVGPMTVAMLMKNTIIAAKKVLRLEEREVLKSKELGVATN
UniProt Q15800: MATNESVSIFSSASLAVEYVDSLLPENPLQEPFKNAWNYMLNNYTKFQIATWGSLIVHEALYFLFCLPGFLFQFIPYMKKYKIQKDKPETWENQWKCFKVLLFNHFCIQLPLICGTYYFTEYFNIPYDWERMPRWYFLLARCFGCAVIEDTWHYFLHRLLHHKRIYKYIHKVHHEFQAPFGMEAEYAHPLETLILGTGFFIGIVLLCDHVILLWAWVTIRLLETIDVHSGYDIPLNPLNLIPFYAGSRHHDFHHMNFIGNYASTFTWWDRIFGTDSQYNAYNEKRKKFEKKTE
UniProt Q9Y217: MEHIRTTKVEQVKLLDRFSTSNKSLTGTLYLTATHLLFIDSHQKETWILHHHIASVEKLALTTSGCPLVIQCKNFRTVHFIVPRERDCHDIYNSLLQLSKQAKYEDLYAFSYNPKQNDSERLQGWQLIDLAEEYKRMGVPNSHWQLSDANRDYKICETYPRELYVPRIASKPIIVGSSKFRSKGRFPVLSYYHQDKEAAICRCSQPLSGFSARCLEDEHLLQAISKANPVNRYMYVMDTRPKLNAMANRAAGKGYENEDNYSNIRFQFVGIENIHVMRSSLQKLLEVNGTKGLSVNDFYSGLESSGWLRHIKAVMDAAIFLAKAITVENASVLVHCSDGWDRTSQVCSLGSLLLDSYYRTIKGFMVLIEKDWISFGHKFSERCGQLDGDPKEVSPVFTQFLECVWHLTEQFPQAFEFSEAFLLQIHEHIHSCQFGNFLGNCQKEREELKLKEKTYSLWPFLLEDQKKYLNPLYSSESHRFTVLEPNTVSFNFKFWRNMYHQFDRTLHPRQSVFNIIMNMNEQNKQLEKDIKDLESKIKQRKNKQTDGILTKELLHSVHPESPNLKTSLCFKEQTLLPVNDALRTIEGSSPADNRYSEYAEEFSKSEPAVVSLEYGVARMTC
UniProt Q96DR8: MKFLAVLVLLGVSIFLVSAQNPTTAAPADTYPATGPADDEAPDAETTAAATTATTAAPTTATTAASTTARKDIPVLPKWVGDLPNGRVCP
UniProt Q9Y3D2: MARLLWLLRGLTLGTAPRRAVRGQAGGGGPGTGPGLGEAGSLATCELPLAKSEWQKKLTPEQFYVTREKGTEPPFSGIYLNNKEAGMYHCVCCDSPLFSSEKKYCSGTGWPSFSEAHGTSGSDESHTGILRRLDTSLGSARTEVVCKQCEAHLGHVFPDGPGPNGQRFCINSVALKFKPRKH
UniProt Q99417: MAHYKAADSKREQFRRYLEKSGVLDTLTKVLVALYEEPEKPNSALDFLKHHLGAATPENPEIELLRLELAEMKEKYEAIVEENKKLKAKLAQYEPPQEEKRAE
UniProt Q969V6: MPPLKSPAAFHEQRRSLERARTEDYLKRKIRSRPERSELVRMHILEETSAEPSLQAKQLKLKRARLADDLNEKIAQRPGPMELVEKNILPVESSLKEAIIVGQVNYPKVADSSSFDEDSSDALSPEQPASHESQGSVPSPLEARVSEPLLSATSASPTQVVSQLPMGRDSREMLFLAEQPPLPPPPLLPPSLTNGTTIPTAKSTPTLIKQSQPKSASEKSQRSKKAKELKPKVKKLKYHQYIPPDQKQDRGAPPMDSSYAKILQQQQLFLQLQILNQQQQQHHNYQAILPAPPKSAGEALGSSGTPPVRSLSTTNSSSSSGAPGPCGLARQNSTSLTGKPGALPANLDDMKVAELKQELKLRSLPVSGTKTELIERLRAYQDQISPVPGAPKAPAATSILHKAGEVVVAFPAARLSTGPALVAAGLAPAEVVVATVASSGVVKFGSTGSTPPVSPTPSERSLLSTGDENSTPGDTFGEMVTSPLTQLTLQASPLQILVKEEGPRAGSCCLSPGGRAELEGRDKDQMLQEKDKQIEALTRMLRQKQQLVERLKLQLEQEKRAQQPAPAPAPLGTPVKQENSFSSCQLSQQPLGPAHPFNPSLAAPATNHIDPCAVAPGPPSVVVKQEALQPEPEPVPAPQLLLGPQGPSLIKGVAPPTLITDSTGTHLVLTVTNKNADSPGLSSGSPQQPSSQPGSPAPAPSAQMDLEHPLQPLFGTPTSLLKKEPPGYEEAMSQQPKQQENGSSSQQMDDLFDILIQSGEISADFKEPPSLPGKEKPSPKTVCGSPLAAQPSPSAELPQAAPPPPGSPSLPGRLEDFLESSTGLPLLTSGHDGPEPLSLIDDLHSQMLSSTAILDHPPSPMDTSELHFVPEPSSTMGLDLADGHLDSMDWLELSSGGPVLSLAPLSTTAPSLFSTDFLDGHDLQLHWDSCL
UniProt P14649: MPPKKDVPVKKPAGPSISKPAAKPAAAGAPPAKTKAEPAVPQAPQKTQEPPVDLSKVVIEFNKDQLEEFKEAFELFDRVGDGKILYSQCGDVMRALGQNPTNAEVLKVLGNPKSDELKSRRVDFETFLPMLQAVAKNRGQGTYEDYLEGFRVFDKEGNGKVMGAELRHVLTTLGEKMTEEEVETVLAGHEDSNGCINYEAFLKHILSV
UniProt P82909: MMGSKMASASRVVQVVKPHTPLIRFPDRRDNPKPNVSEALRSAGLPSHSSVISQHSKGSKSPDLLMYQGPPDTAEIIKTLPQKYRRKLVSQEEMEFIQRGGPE
UniProt Q9NVV4: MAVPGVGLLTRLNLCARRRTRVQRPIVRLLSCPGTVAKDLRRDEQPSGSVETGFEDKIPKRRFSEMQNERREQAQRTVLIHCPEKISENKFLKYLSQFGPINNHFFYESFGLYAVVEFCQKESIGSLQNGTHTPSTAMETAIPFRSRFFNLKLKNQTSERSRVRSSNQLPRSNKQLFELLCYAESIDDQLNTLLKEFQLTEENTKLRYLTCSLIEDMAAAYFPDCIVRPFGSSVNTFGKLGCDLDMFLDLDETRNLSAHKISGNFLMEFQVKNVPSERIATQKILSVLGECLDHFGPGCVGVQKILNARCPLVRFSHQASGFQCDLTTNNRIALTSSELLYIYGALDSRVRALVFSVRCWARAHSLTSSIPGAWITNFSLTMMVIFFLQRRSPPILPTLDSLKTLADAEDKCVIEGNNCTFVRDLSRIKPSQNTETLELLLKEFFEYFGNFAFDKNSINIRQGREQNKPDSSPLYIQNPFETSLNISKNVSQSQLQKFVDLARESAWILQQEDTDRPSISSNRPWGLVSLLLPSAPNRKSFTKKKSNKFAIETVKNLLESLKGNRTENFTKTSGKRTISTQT
UniProt Q8NCE2: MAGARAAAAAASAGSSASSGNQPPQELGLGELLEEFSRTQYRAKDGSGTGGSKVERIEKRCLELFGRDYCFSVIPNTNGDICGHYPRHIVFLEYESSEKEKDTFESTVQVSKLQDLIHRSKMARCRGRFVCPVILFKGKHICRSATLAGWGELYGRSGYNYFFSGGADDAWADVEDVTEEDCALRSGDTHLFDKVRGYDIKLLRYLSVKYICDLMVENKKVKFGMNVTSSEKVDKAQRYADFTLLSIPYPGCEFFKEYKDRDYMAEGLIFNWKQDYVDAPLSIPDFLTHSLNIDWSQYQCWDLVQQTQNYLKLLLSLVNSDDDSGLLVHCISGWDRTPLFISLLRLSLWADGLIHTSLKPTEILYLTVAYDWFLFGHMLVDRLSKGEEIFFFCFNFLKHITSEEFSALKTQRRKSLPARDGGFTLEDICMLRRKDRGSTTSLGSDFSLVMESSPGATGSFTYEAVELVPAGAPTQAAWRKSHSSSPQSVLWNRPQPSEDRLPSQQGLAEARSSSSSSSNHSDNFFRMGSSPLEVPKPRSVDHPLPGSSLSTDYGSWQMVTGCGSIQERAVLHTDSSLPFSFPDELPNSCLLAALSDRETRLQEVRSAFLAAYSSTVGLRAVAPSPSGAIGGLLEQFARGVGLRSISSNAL
UniProt P35579, whole entry, looked up: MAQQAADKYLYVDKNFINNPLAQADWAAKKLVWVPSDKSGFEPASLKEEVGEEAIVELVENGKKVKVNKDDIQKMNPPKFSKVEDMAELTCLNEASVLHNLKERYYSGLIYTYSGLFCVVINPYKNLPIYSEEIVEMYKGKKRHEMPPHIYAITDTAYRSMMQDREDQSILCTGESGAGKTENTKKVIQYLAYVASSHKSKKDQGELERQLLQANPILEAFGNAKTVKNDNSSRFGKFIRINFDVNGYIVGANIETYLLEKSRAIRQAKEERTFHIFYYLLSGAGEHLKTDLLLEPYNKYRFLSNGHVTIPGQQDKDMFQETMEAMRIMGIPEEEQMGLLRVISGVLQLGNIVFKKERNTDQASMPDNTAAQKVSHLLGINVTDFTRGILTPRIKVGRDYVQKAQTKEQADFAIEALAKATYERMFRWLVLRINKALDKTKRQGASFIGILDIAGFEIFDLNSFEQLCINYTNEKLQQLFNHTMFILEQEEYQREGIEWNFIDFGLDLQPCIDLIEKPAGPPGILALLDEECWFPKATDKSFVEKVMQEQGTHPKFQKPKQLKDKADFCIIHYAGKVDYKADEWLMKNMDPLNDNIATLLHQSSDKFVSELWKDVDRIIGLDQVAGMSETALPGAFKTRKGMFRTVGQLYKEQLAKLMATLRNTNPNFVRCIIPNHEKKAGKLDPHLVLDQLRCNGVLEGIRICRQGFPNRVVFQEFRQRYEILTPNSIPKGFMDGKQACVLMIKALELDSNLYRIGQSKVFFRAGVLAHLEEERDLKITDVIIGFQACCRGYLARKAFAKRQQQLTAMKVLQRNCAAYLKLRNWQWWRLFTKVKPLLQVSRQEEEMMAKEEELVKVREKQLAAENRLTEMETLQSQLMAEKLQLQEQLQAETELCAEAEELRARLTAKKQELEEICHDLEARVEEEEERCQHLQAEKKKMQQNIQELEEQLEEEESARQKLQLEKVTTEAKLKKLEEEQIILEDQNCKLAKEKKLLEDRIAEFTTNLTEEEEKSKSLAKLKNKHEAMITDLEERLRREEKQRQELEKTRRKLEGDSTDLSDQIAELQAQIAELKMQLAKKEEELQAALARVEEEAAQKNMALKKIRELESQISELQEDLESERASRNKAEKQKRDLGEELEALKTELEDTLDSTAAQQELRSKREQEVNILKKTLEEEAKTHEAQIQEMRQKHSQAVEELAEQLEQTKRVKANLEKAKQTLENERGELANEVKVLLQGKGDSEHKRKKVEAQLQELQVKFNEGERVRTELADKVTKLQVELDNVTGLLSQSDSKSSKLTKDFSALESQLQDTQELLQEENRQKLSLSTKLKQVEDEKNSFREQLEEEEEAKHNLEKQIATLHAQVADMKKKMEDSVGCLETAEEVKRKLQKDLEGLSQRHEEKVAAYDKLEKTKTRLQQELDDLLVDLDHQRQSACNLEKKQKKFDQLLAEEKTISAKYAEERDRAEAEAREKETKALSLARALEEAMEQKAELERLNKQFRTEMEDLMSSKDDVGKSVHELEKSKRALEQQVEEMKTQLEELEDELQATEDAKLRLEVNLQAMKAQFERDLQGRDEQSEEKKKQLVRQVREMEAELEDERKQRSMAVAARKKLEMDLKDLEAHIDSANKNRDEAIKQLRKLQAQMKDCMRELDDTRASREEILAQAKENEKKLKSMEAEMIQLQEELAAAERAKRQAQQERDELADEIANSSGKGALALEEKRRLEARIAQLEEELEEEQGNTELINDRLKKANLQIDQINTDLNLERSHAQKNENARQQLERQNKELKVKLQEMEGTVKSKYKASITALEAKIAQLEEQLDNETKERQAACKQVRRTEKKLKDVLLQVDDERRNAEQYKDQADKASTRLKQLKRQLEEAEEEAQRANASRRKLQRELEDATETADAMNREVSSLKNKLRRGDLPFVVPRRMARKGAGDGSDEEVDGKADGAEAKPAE

Compound in the first test: O=C(O)c1ccc2c(c1)nc(Nc1cccc(Cl)c1)c1ccncc12 [silmitasertib]
Description: log2 fold change, soluble protein after heating vs DMSO (PISA); higher = thermal stabilisation; K562 cells, 10 uM, 30 min; active = over 0.2 and 3.5 SD of the protein, either way, in both replicates (recomputed). In outline:
(§1)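 K562 cells at 2×10^6 cells/mL were exposed to 10 μM compound for 30 min, then aliquots were heated for 3 min across 48°C-58°C, pooled, and extracted in PBS containing 0.5% NP-40 at 4°C. The supernatant after 21,000xg for 90 min was taken as soluble protein and measured by TMTpro 16plex LC-MS/MS with channel sums equalised. Thermal stability is reported relative to control samples, with values from duplicates. Fold changes are given on a log2 scale.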
With MTCH1 (UniProt Q9NZJ7), the log2 fold change is inactive: 0.003.
For MTHFD2 (UniProt P13995), the log2 fold change is inactive: -0.023.
Still for that read-out and setting: next, MT-CYB (UniProt P00156): inactive: 0.113.
Regarding MYH11 isoform 2 (UniProt P35749), the log2 fold change was inactive: -0.003.
As for MT-ATP6 (UniProt P00846), the log2 fold change was inactive: -0.005.
As for MYO1D (UniProt O94832), the log2 fold change was inactive: 0.15.
On the same count and under the same terms, next, MTHFD1, A0A384N5Y3: inactive: -0.091; MRRF (UniProt Q96E11): inactive: 0.036; MTMR12 (UniProt Q9C0I1): inactive: 0.007.
As to MSN (UniProt P26038), the log2 fold change is inactive: -0.018.
Turning to MSMO1 (UniProt Q15800), the log2 fold change is inactive: 0.044.
The same measure, in the same setting: next, MRPS10 (UniProt P82664): inactive: -0.048; MTMR6 (UniProt Q9Y217): inactive: 0.126.
On the same count and under the same terms, next, MUCL1 (UniProt Q96DR8): inactive: -0.526; MRPS2 (UniProt Q9Y399): inactive: -0.103.
Consider MRPS15 (UniProt P82914), for which the log2 fold change was inactive: -0.114.
Same read-out and setting: next, MRPS27 isoform 2 (UniProt Q92552): inactive: -0.04; MSRB2 (UniProt Q9Y3D2): inactive: -0.077.
With MYCBP (UniProt Q99417), the log2 fold change is inactive: -0.044.
Still for that read-out and setting: next, MRPS11 (UniProt P82912): inactive: -0.037; MRPS33 (UniProt Q9Y291): inactive: -0.066; MRTFA (UniProt Q969V6): inactive: 0.007.
Same read-out and setting: next, MYL6B (UniProt P14649): inactive: 0.028; MTM1 (UniProt Q13496): inactive: 0.049; MRPS36 (UniProt P82909): inactive: -0.115.
Turning to MTRR isoform 1 (UniProt Q9UBK8), the log2 fold change was inactive: 0.114.
In the case of MRPS24 (UniProt Q96EL2), the log2 fold change is inactive: -0.096.
Take MTPAP (UniProt Q9NVV4): the log2 fold change is inactive: 0.074.
Still for that read-out and setting: next, MRPL9 (UniProt Q9BYD2): inactive: -0.031.
The same measure, in the same setting: next, MRPS30 (UniProt Q9NP92): inactive: -0.028; MTMR14 (UniProt Q8NCE2): inactive: 0.071; MTX2 (UniProt O75431): inactive: -0.023.
Regarding MTA1 (UniProt Q13330), the log2 fold change was inactive: 0.046.
For MYADM (UniProt Q96S97), the log2 fold change was inactive: 0.054.
On the same count and under the same terms, next, MTOR (UniProt P42345): inactive: 0.102; MYO6 isoform 6 (UniProt Q9UM54): inactive: -0.008.
Still for that read-out and setting: next, MYH9 (UniProt P35579): inactive: -0.023; MRPS18A isoform 2 (UniProt Q9NVS2): inactive: 0.01.
Same read-out and setting: next, MRS2 (UniProt Q9HD23): inactive: 0.

Compound in the next test: O=C1NC(=O)C(c2cnc3ccccn23)=C1c1cn2c3c(cc(F)cc13)CN(C(=O)N1CCCCC1)CC2
The description is as above. In outline:
as §1
For the target MTCH1 (UniProt Q9NZJ7), the log2 fold change is inactive: -0.021.
On the same count and under the same terms, next, MTHFD2 (UniProt P13995): inactive: -0.048; MT-CYB (UniProt P00156): inactive: 0.189; MYH11 isoform 2 (UniProt P35749): inactive: -0.009.
As for MT-ATP6 (UniProt P00846), the log2 fold change was inactive: 0.037.
With MYO1D (UniProt O94832), the log2 fold change was inactive: 0.107.
On the same count and under the same terms, next, MTHFD1, A0A384N5Y3: inactive: -0.056; MRRF (UniProt Q96E11): inactive: -0.067.
Take MTMR12 (UniProt Q9C0I1): the log2 fold change is inactive: -0.006.
MSN (UniProt P26038): the log2 fold change is inactive: 0.004.
Regarding MSMO1 (UniProt Q15800), the log2 fold change is inactive: -0.064.
For MRPS10 (UniProt P82664), the log2 fold change is inactive: 0.
On the same count and under the same terms, next, MTMR6 (UniProt Q9Y217): inactive: 0.059.
As to MUCL1 (UniProt Q96DR8), the log2 fold change is inactive: 0.074.
As for MRPS2 (UniProt Q9Y399), the log2 fold change is inactive: -0.021.
On to MRPS15 (UniProt P82914), for which the log2 fold change is inactive: 0.085.
With MRPS27 isoform 2 (UniProt Q92552), the log2 fold change is inactive: 0.049.
Same read-out and setting: next, MSRB2 (UniProt Q9Y3D2): inactive: 0.056; MYCBP (UniProt Q99417): inactive: -0.061; MRPS11 (UniProt P82912): inactive: -0.047.
Consider MRPS33 (UniProt Q9Y291), for which the log2 fold change was inactive: 0.016.
On the same count and under the same terms, next, MRTFA (UniProt Q969V6): inactive: -0.034; MYL6B (UniProt P14649): inactive: -0.04.
For the target MTM1 (UniProt Q13496), the log2 fold change was inactive: 0.01.
On the same count and under the same terms, next, MRPS36 (UniProt P82909): inactive: -0.033; MTRR isoform 1 (UniProt Q9UBK8): inactive: -0.084.
Same read-out and setting: next, MRPS24 (UniProt Q96EL2): inactive: -0.074; MTPAP (UniProt Q9NVV4): inactive: 0.1.
The same measure, in the same setting: next, MRPL9 (UniProt Q9BYD2): inactive: 0.092; MRPS30 (UniProt Q9NP92): inactive: 0.025; MTMR14 (UniProt Q8NCE2): inactive: -0.081.
In the case of MTX2 (UniProt O75431), the log2 fold change was inactive: -0.109.
Consider MTA1 (UniProt Q13330), for which the log2 fold change was inactive: 0.048.
Same read-out and setting: next, MYADM (UniProt Q96S97): inactive: 0.117.
On the same count and under the same terms, next, MTOR (UniProt P42345): inactive: -0.065; MYO6 isoform 6 (UniProt Q9UM54): inactive: 0.001; MYH9 (UniProt P35579): inactive: -0.008.
With MRPS18A isoform 2 (UniProt Q9NVS2), the log2 fold change was inactive: 0.03.
Still for that read-out and setting: next, MRS2 (UniProt Q9HD23): inactive: -0.009.

These data come from the supplement of paper PMC10849652.
